According to PMC5037378:
No constants are given. Whether binding was seen depends on the method and setting. Some results given as binding are weak or reduced against the parent protein; the word gives no strength. Where a sequence is shown, tags or fusion partners need not be part of it.

Protein sequences, listed by entry. Tags and fused reporters are not part of them. Residues count along the entry.
UniProt P13608, residues 17-2364: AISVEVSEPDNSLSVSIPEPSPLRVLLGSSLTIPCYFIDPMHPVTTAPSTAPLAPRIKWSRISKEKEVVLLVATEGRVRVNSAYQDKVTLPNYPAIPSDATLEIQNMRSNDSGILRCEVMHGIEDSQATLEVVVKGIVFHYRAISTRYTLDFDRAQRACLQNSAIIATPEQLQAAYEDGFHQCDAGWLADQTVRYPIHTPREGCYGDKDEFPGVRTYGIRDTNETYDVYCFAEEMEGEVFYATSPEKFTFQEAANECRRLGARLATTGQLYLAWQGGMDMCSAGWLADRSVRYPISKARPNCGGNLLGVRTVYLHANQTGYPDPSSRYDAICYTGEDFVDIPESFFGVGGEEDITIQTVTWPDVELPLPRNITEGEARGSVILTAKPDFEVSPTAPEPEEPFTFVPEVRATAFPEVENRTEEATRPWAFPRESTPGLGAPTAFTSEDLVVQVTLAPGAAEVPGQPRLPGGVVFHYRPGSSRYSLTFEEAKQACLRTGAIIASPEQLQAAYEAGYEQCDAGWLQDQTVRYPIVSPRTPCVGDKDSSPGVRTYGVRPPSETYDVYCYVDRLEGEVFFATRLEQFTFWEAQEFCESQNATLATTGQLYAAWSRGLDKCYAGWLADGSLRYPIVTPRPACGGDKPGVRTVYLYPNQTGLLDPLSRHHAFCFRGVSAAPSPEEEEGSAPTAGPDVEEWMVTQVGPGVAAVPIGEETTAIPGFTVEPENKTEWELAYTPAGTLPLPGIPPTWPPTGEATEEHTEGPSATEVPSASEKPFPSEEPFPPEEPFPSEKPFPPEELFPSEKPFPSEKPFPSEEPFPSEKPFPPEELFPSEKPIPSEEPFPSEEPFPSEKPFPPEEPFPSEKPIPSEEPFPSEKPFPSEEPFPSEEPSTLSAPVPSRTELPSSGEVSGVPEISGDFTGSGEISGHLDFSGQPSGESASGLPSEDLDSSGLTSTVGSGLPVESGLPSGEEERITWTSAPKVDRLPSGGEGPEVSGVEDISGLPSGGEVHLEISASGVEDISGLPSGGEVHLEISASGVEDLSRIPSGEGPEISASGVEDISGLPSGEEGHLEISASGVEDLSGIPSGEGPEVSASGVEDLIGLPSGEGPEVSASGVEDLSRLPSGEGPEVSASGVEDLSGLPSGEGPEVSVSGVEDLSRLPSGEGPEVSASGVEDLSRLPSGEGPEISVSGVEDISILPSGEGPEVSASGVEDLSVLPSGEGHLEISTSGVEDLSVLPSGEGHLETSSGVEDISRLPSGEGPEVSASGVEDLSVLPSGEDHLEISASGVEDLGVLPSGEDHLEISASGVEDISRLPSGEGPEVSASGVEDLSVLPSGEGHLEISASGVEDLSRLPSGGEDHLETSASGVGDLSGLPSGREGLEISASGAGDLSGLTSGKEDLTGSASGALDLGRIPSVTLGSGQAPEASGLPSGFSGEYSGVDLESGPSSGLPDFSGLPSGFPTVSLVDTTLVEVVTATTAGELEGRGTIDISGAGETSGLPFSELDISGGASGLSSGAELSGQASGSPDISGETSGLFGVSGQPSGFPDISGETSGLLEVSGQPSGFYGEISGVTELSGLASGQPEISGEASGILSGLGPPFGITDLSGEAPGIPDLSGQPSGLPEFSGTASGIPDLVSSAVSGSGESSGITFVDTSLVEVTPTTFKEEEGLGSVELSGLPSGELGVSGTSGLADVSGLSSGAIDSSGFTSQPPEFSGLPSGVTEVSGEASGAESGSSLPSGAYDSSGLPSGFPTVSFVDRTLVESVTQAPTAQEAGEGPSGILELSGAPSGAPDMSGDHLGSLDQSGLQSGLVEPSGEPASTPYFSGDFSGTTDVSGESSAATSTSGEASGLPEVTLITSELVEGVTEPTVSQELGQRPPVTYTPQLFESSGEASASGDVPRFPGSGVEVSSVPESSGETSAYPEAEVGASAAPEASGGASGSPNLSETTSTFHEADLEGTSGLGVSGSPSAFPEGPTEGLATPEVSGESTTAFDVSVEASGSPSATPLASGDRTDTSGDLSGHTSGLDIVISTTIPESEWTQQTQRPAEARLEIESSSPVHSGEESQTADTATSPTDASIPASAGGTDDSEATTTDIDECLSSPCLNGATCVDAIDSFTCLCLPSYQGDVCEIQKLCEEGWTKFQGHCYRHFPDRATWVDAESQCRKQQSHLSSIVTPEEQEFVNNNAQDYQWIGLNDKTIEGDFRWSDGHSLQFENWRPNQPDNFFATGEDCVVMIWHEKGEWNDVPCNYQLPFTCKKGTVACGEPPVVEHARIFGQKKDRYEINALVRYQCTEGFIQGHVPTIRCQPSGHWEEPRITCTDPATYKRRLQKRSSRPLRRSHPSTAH

T1: HB-GAM (heparin-binding growth-associated molecule; pleiotrophin) (rat) (UniProt P63090)
T1 sequence: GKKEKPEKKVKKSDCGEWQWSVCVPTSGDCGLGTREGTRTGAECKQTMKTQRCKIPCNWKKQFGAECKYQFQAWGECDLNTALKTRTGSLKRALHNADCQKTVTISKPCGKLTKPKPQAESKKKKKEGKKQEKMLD


Legend:
[1] = target: Aggrecan (UniProt P13608); experiment: ELISA; solid phase binding assay: wells coated with aggrecan 10 μg/ml in PBS; PTPσ-Fc recombinants (80 nM) mixed with different concentrations of HB-GAM in 1% BSA, 0.05% Tween-20 in PBS, overnight at 4 °C; bound PTPσ detected with HRP-conjugated goat anti-human IgG (Fc part), OPD; both purified
[2] = target: T1, HB-GAM (heparin-binding growth-associated molecule; pleiotrophin) (rat); experiment: SPR; Biacore T100; HB-GAM immobilised on a CM5 chip, blank channel as reference; 20 μl/min, 60 s injections; PTPσ injected at 1 μM and 5 μM; both purified

binding [1] | binding [2] | Binder
binds | no binding (tested: 1 μM and 5 μM) | PTPσ (protein tyrosine phosphatase sigma) N-terminal extracellular part with the three Ig domains, Fc-tagged, wild type (Fc fusion, UniProt B0V2N1 30-321) EEPPRFIREPKDQIGVSGGVASFVCQATGDPKPRVTWNKKGKKVNSQRFETIDFDESSGAVLRIQPLRTPRDENVYECVAQNSVGEITIHAKLTVLREDQLPPGFPNIDMGPQLKVVERTRTATMLCAASGNPDPEITWFKDFLPVDPSASNGRIKQLRSGALQIESSEETDQGKYECVATNSAGVRYSSPANLYVRVRRVAPRFSILPMSHEIMPGGNVNITCVAVGSPMPYVKWMQGAEDLTPEDDMPVGRNVLELTDVKDSANYTCVAMSSLGVIEAVAQITVKSLPKA
binds | – | HB-GAM (heparin-binding growth-associated molecule; pleiotrophin) (protein, UniProt P63090 33-168) GKKEKPEKKVKKSDCGEWQWSVCVPTSGDCGLGTREGTRTGAECKQTMKTQRCKIPCNWKKQFGAECKYQFQAWGECDLNTALKTRTGSLKRALHNADCQKTVTISKPCGKLTKPKPQAESKKKKKEGKKQEKMLD
